Screening data, single-dose tests

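Assay of Toxoplasma gondii numbers, read through their beta-galactosidase reporter with a colour substrate. Concentration: 10 µM. The record gives no direction; the compounds picked for IC50 retests had high values, so higher reads as fewer parasites. Size under these conditions: about 67,000 compounds, about 260 of them at 50% or above in at least one test.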

The filed quantity is “Percent Effect” (%).
The record does not define 0% and 100%; most values in the screen are far below 50% and negative numbers occur (in some assays of this library far below -100).
This is an unselected part of the compounds tested.

- CSCC[C@H](N)C(=O)NCc1cc2n(n1)CCCN(C(=O)N(C)C)C2 | 4.79%
- N#Cc1c(Cl)nsc1NCc1ccc(N2CCCC(C(N)=O)C2)cc1 (stereo not given) | 22.17%
- Cc1c(C)n2c(SCC(=O)N3CCCCC3)nnc2[nH]c1=O | -1.234%
- O=C1CSC(C(F)(F)F)c2c(O)nn(C3CCCC3)c2N1 (stereo not given) | 3.2%
- CC(C)CN1CCC(C(=O)NCCNC(=O)c2ccco2)CC1 | 2.14%
- O=C(CSc1ccccn1)N1CCC(OCc2cccnc2)CC1 | -11.42%
- [H][C@]12CC=C(CN3CCCn4nc(C(=O)NCCO)cc4C3)[C@]([H])(C1)C2(C)C | -3.204%
- CCC(NC(=O)c1ccc(OC)nn1)c1nc(C(F)(F)F)cs1 (stereo not given) | -1.452%
- CCc1cc(N2CCC(NCCc3nc(C)c(C)s3)CC2)nc(C)n1 | 15.57%
- Cn1ccnc1CC1CCCN(C(=O)Nc2cccn(C)c2=O)C1 (stereo not given) | 6.734%
- Cc1noc(C2CCCN(C(=O)c3scnc3Cl)C2)n1 (stereo not given) | -3.253%
- Cc1ccc(CN(C)C(=O)NCC(C)(C)S(C)(=O)=O)s1 | 13.21%
- Cc1nn(CC(=O)Nc2ccon2)cc1Br | 3.204%
- Cc1ccccc1N1CC2(CCCCN2CC2CC2)CC1=O.O=C(O)C(F)(F)F (stereo not given) | -6.097%
- O=C1CC(c2cccs2)c2snc(C(=O)O)c2N1 (stereo not given) | 14.25%
- CN(Cc1cccnc1)C1COC2(CCN(Cc3nccs3)CC2)C1.O=C(O)C(F)(F)F.O=C(O)C(F)(F)F.O=C(O)C(F)(F)F (stereo not given) | -2.766%
- NC(=O)Nc1cccc(Oc2ccccn2)c1 | -0.3519%
- O=C(Cc1ccccn1)N1CC[C@]2(C[C@@H](Oc3ncccc3F)CO2)C1.O=C(O)C(F)(F)F.O=C(O)C(F)(F)F | 4.734%
- CCOCC1CN(C(=O)C2CCOCC2)Cc2cnn(C)c21 (stereo not given) | -6.165%
- Cc1ccccc1OCCCC(=O)NCC1CN(C)CCO1 (stereo not given) | -15.26%
- O=C(O)C(F)(F)F.[H][C@@]12CCCO[C@]1([H])[C@H](OCc1cccnc1)CN2S(=O)(=O)N(C)C | -1.605%
- Cc1ncsc1C(=O)N1CCc2nnc(C3CCCCN3C)n2CC1 (stereo not given) | -11.04%
- O=C(CCc1ccc(-c2ccccc2)[nH]1)N1CCCC(n2ccnc2)C1 (stereo not given) | -31.56%
- Cc1nc(CN2CCN(C(=O)NC(C)Cn3ccnc3)CC2)cs1 (stereo not given) | 9.506%
- Cc1ccc2c(c1)CCC21CCN(C(=O)CO)CC1 | -5.854%
- O=C1CCN(C(=O)NCC(c2ccccc2)c2ccccc2)CCN1 | 4.835%
- COCCN1CCCC(CN(C)c2nc3c(s2)c(C)nn3C)C1 (stereo not given) | -3.91%
- CC(C)CNC(=O)CN(C)S(C)(=O)=O | 11.58%
- Cn1nccc1C(=O)N1CCOC(Cc2ccc(F)cc2)C1 (stereo not given) | -14.59%
- O=S(=O)(CCO)CCc1ccccc1Cl | -1.723%
- COc1cc2c(cc1CN1C[C@@H](CN3CCOCC3)[C@@H](CO)C1)CCC2 | -2.875%
- [H][C@@]12CCN(C(=O)c3cccs3)C[C@]1([H])OCCNC2=O | -6.788%
- O=C(c1cn2cc(Cl)ccc2n1)N1CCC(CCn2cccn2)CC1 | 9.897%
- Cc1cccc(NC(=O)N2CCN(Cc3nnc(C(C)C)o3)CC2)c1 | -2.996%
- CCN(CC1CCCO1)C(=O)Nc1cc(C)ccc1S(C)(=O)=O (stereo not given) | -35.59%
- Cn1ccc(CNC(=O)N2CCC(C3(C)OCCO3)CC2)c1 | 3.273%
- CCCc1nc(CN2CCCCC2Cn2cncn2)cs1 (stereo not given) | 1.19%
- Cc1cccc(C)c1OCC(=O)N1CCOCC1c1ncon1 (stereo not given) | 56.8%
- CC(NCc1ccc(F)cc1)c1ccc(S(C)(=O)=O)cc1 (stereo not given) | -2.65%
- COc1cc(F)c(NC(=O)N(C)Cc2cc(C)on2)cc1F | -25.68%
- CCN(C)S(=O)(=O)N(CC)Cc1cccc(-c2ccncc2)c1 | 13.68%
- Cc1ccnc(NS(=O)(=O)c2cc(C(N)=O)n(C)c2)c1 | 8.127%
- CNC(=O)c1ccnc(N2CCCC(COc3cccc(C)c3)C2)c1 (stereo not given) | -32.68%
- Cc1ccc([C@@H]2CN(C(=O)c3ccc[nH]3)C[C@H]2NC(=O)C2CC2)cc1 | -0.9191%

Once more, the final 4:

Compound,Percent Effect
CCN(C)S(=O)(=O)N(CC)Cc1cccc(-c2ccncc2)c1,13.68%
Cc1ccnc(NS(=O)(=O)c2cc(C(N)=O)n(C)c2)c1,8.127%
CNC(=O)c1ccnc(N2CCCC(COc3cccc(C)c3)C2)c1 (stereo not given),-32.68%
Cc1ccc([C@@H]2CN(C(=O)c3ccc[nH]3)C[C@H]2NC(=O)C2CC2)cc1,-0.9191%

Source: ChEMBL document CHEMBL3988442, “University of Dundee, Small-Polar-MMV Screening Library” (2021).